According to PubChem BioAssay AID540256 (National Center for Advancing Translational Sciences (NCATS), 2011):
About 3,700 (1.2%) of roughly 300,000 compounds were called active. This list was built around the results that the source calls inconclusive (neither active nor inactive); the mix of calls is not that of the screen. Calls come from the whole dose curve; tested in HEK293 cells. Potencies beside an inconclusive call are fits to weak or partial responses and may not hold up.
% is set by controls: 0 for no effect and ±100 for the full control effect; potency is the fitted concentration of half-maximal effect.

Test: qHTS for Inhibitors of binding or entry into cells for Lassa Virus; note: nearly all actives have a fitted effect of over 50% in size
Settings: Lassa virus pseudotype entry inhibition, cell reporter; activity change, negative = inhibition: at 37.9 µM (top of the series) unless noted
With `CC1(C)C(C=C(Cl)Cl)C1C(=O)Nc1ccc([N+](=O)[O-])cc1` (stereo not drawn) the Potency was inconclusive: 29.1 µM [inhibitor, single point]. With `O=C(Oc1ccc(F)cc1C(=O)/C=C/c1cccs1)c1cccc([N+](=O)[O-])c1` the Potency was inconclusive: 8.91 µM [inhibitor, partial curve, poor fit]. With `N#Cc1c(-c2ccccc2)c(-c2ccccc2)n(Cc2ccco2)c1NC(=O)c1cccs1` the Potency was inconclusive: 35.5 µM [inhibitor, single point]. With `O=C(Nc1ccccc1)OC1CCC2CC1CCC2OC(=O)Nc1ccccc1` (stereo not drawn) the Potency was inconclusive: 22.4 µM [inhibitor, single point]. In the case of `COc1ccc(OCC(=O)Nc2cc(S(=O)(=O)N3CCCC3)ccc2OCC(F)(F)F)cc1`, the Potency is reported as inconclusive: 35.5 µM [inhibitor, partial curve, poor fit]. For `COc1ccc(CCNC(=O)c2ccc(CS(=O)(=O)c3ccc(Cl)cc3)o2)cc1OC`, the Potency was active: 25.9 µM. With `CCCSC1=NC2(CCN(C(=O)NC3CCCCC3)CC2)N=C1c1ccc(C)cc1` the “activity change, negative = inhibition” value was inactive: 7.09% [at 46.1 µM]. With `O=C(O)c1ccc2c3c(cccc13)C(=O)N(c1ccccc1)C2=O` the “activity change, negative = inhibition” value was inactive: 2.8%. With `O=C(Nc1ccccc1OCc1cc(=O)n2ccccc2n1)Nc1ccccc1C(F)(F)F` the Potency was inconclusive: 11.2 µM [activator, partial curve, poor fit]. With `CC(=O)c1ccc(NC(=O)CNCC(c2ccccc2)N(C)C)cc1` (stereo not drawn) the Potency was inconclusive: 35.5 µM [activator, single point]. In the case of `O=C(NCCc1ccccc1)c1cccc(NC(=O)C2CCCCC2)c1`, the Potency is reported as inconclusive: 0.0995 µM [activator, full curve, poor fit]. In the case of `COc1ccc(OCCSc2nc(C)nc3ccccc23)cc1`, the Potency is reported as inconclusive: 10 µM [inhibitor, partial curve, poor fit]. In the case of `CCOC(=O)N1CCN(Cc2nc(N)nc(Nc3ccc(Cl)cc3)n2)CC1`, the “activity change, negative = inhibition” value is reported as inactive: 12.2%. In the case of `CCOC(=O)c1cnc2c(C)cc(C)cc2c1NCCN1CCOCC1`, the “activity change, negative = inhibition” value is reported as inactive: -13.6% [at 46.1 µM]. For `O=C(NC1CCSc2ccccc21)c1cccc(OC(F)F)c1` (stereo not drawn), the “activity change, negative = inhibition” value was inactive: 3.38%. With `COc1cc(C2c3c(-c4c(C)cc(C)cc4O)n[nH]c3C(=O)N2Cc2ccco2)cc(OC)c1OC` (stereo not drawn) the Potency was inconclusive: 5.01 µM [inhibitor, full curve]. For `CC(C)OC(=O)C1=C(N)N2C(=O)CSC2=C(C(=O)OC(C)C)C1`, the Potency was inconclusive: 1.12 µM [inhibitor, partial curve, poor fit]. In the case of `CCOC(=O)C(C)Sc1nnc2cc(C)c3ccccc3n12` (stereo not drawn), the “activity change, negative = inhibition” value is reported as inactive: 0.0182% [at 46.1 µM]. With `COc1ccc2oc(-c3cccc(NC(=O)c4cc([N+](=O)[O-])ccc4N4CCOCC4)c3)nc2c1` the Potency was inconclusive: 28.2 µM [inhibitor, single point]. In the case of `Cn1c2ccccc2c2cc(/C=N/NC(=O)c3cc(O)cc(O)c3)ccc21`, the “activity change, negative = inhibition” value is reported as inactive: 10.7% [at 46.1 µM]. In the case of `COc1ccc(S(=O)(=O)N2CCCCCC2)cc1C(=O)N(C)CC(=O)Nc1c(Cl)cccc1Cl`, the “activity change, negative = inhibition” value is reported as inactive: 10.8%. With `Cc1ccc(-c2noc(C3CCCN(C(=O)c4ccc(Cl)cc4)C3)n2)o1` (stereo not drawn) the Potency was inconclusive: 22.4 µM [inhibitor, single point]. With `O=C(NCc1ccc2c(c1)OCO2)c1ccco1` the “activity change, negative = inhibition” value was inactive: 8.8% [at 46.1 µM]. With `CCN(CC)S(=O)(=O)c1cc(NC(=O)c2ccc(Br)s2)ccc1C` the Potency was inconclusive: 3.55 µM [inhibitor, partial curve, poor fit]. In the case of `CCc1nc2c(c(=O)c3ccccc3n2C)c(=O)n1C1CCCCCC1`, the Potency is reported as inconclusive: 11.2 µM [inhibitor, partial curve, poor fit]. For `CC1(C)Cc2ccccc2C2=NNC(=O)C2=N1`, the Potency was inconclusive: 1.58 µM [inhibitor, full curve, poor fit]. For `CC(C)n1nnnc1SCC(=O)NCCc1ccccc1`, the “activity change, negative = inhibition” value was inactive: 13.4%. With `COc1ccc2c(c1)c1ncn(CCc3ccccc3)c(=O)c1n2C` the Potency was inconclusive: 18.3 µM [inhibitor, partial curve, poor fit]. With `Cc1c(NP(=O)(C(C)(C)C)C(C)(C)C)c(=O)n(-c2ccccc2)n1C` the Potency was inconclusive: 0.501 µM [activator, full curve, poor fit]. With `CC(C)NC(=O)C1CCCN(c2ncnc3onc(-c4ccc(F)cc4)c23)C1` (stereo not drawn) the “activity change, negative = inhibition” value was inactive: -14.9% [at 46.1 µM]. With `COc1ccccc1C(=O)Nc1ccc(C(=O)N2CCCC2)cc1` the “activity change, negative = inhibition” value was inactive: 6.15%. With `CCOc1ccccc1NC(=O)CCS(=O)(=O)c1ccc2c(c1)oc(=O)n2C` the “activity change, negative = inhibition” value was inactive: 11.1% [at 46.1 µM]. For `Cc1nc(C)n(C(C)CNS(=O)(=O)c2ccc(C)c(C)c2)n1` (stereo not drawn), the Potency was inconclusive: 39.8 µM [inhibitor, partial curve, poor fit]. In the case of `COCCN1Cc2cc(=O)n3c([nH]c4ccccc43)c2C1=N`, the Potency is reported as inconclusive: 3.98 µM [activator, single point]. With `CCCCN1C2CCCC1CC(NC(=O)C1CCCCC1)C2` (stereo not drawn) the Potency was inconclusive: 0.164 µM [inhibitor, partial curve, poor fit]. For `C=CCn1c(SCc2csc(C)n2)nc2sc3c(c2c1=O)CCCC3`, the Potency was active: 5.01 µM. In the case of `CN(C)S(=O)(=O)c1cccc(NC(=O)COc2ccc(C(=O)c3ccccc3)cc2)c1`, the Potency is reported as inconclusive: 7.94 µM [inhibitor, partial curve]. In the case of `COc1ccc(-c2noc(CSc3nnc(Cc4ccccc4)n3-c3ccc(F)cc3)n2)cc1`, the Potency is reported as inconclusive: 3.98 µM [inhibitor, full curve, poor fit]. With `CCN(CC)S(=O)(=O)c1cc(-c2ccc(=O)n(C(C)C(=O)Nc3cccc(C#N)c3)n2)ccc1C` (stereo not drawn) the “activity change, negative = inhibition” value was inactive: -13.2% [at 46.1 µM]. With `CC(C)c1[nH]nc2c1C(c1ccc(OC(=O)c3ccco3)cc1)C(C#N)=C(N)O2` (stereo not drawn) the Potency was inconclusive: 29.1 µM [inhibitor, single point]. With `Cc1cccc(NC(=O)COc2cccc3c2CCN(C)C3=O)c1C` the “activity change, negative = inhibition” value was inactive: 4.44%. For `CC1=CC2=NC(=O)/C(=C\c3cccn3CCOc3ccccc3)C(=N)N2O1`, the Potency was inconclusive: 2.06 µM [inhibitor, partial curve, poor fit]. With `CSc1nc2nc(C)cc(-c3ccccc3)n2n1` the “activity change, negative = inhibition” value was inactive: 11.3%. For `Cc1c(Cc2ccccc2)sc(/N=C/c2ccc3ccccc3c2)c1C(N)=O`, the Potency was inconclusive: 0.0282 µM [inhibitor, full curve, poor fit]. With `CCOC(=O)c1c(NC(=O)c2ccc(-n3cnnn3)cc2)sc2c1CCCC2` the Potency was active: 15.8 µM. With `COc1cc(/C=C/c2ccc3cccc(OC)c3n2)c(OC(C)=O)c([N+](=O)[O-])c1` the Potency was inconclusive: 32.6 µM [inhibitor, single point]. In the case of `COc1ccc(NC(=O)CC2C(=O)N(c3ccccc3)C(=O)N2CCc2sccc2C)cc1` (stereo not drawn), the Potency is reported as inconclusive: 35.5 µM [inhibitor, single point]. For `CCc1ccccc1NC(=O)c1sc2nc(C)cc(C)c2c1N`, the Potency was inconclusive: 35.5 µM [inhibitor, single point]. With `Brc1ccc(-c2nn3c(-c4ccccn4)nnc3s2)o1` the Potency was inconclusive: 6.51 µM [activator, full curve, poor fit]. In the case of `CSCCC(NC(=O)c1ccccc1Cl)C(=O)N(C)Cc1cccs1` (stereo not drawn), the “activity change, negative = inhibition” value is reported as inactive: -12%. With `Cc1ccc(NS(=O)(=O)c2ccc3c(c2)NC(=O)CCS3)c(Cl)c1` the Potency was inconclusive: 15.8 µM [inhibitor, single point]. In the case of `CCc1ccc(C(=O)NCc2cnn(C)c2)s1`, the Potency is reported as inconclusive: 22.4 µM [inhibitor, partial curve, poor fit]. With `C/C(=N\Nc1ccccc1)c1c(O)cc(C)oc1=O` the Potency was inconclusive: 11.2 µM [inhibitor, partial curve, poor fit]. With `ClCc1nc2ccccc2c2ccccc12` the “activity change, negative = inhibition” value was inactive: 0.976%. With `O=C(CSc1ccccc1)NN1C(=O)c2ccccc2C1=O` the Potency was inconclusive: 5.62 µM [activator, single point]. In the case of `Cc1nc(N2CCN(S(=O)(=O)c3ccc(F)cc3)CC2)c2c(-c3cccs3)csc2n1`, the Potency is reported as inconclusive: 7.08 µM [inhibitor, full curve, poor fit]. With `Cc1ccc(CN2CCC(CNC(=O)c3cnn(-c4ccc(C)cc4)c3C3CCN(C(=O)OC(C)(C)C)CC3)CC2)cc1` the Potency was inconclusive: 35.5 µM [inhibitor, single point]. With `CC1(C(=O)OCC(=O)Nc2ccc(S(=O)(=O)N3CCOCC3)cc2)CC1(Cl)Cl` (stereo not drawn) the Potency was inconclusive: 35.5 µM [inhibitor, single point]. For `O=C(CC1SC(=Nc2ccccc2)N(CCc2ccccn2)C1=O)Nc1ccc(F)cc1` (stereo not drawn), the Potency was inconclusive: 18.3 µM [inhibitor, partial curve]. In the case of `CCn1nnc(NC(=O)c2cccc(-c3cc4ccccc4oc3=O)c2)n1`, the “activity change, negative = inhibition” value is reported as inactive: 5.73%. With `COc1ccc(NC(=O)c2oc3ccccc3c2C)c(OC)c1` the Potency was inconclusive: 6.51 µM [activator, single point]. For `CCOC(=O)c1c(N/N=C/c2ccncc2)n[nH]c1C`, the “activity change, negative = inhibition” value was inactive: 4.43%. In the case of `Cc1ccc(-n2nc(C(=O)N(C)c3ccc(C)c(C)c3)c3c4ccccc4n(C)c3c2=O)cc1`, the Potency is reported as inconclusive: 12.6 µM [inhibitor, single point]. With `COc1ccc(NC(=O)c2sc(SC)nc2N)cc1` the “activity change, negative = inhibition” value was inactive: 11.5%. In the case of `Cc1ccc(NC(=O)c2c(C)oc3ccc(O)c(CN4CCN(Cc5ccccc5)CC4)c23)cc1`, the Potency is reported as inconclusive: 35.5 µM [inhibitor, single point]. For `CC(=O)Nc1ccc(-c2csc(NC(=O)CN3C(=O)NC4(CCCC4)C3=O)n2)cc1`, the “activity change, negative = inhibition” value was inactive: 0.587%. In the case of `CC(=O)Nc1cc2c(ccc3ccccc32)oc1=O`, the Potency is reported as inconclusive: 5.62 µM [inhibitor, partial curve, poor fit]. For `Cc1ccc2[nH]c(=O)c(CN(CCCO)C(C)c3nnnn3Cc3ccco3)cc2c1` (stereo not drawn), the Potency was inconclusive: 13 µM [inhibitor, partial curve, poor fit].
